Values quoted from earlier work, collected in US20250345253A1 (priority 2024, published 2025).
For at least one compound, name, drawing or mass did not settle the structure.

Details: cited from earlier work

In the case of `O=c1nc([O-])n(Cl)c(=O)n1Cl.[Na+]` [Sodium Dichloroisocyanurate], the “pH, 1% solution unless otherwise noted” value is listed as 6.0 b.
